Measurements published in patent US8993624B2, “Method of preventing and treating inflammatory diseases and disorders with abscisic acid” (Virginia Tech Intellectual Properties, Inc., priority 2010, dated 2015).
For at least one compound, name, drawing or mass did not settle the structure.

Test system: PPAR γ
Assay: LANCL2 siRNA and PPAR γ co-transfections in RAW macrophages
Type: cell-based

`CN(CCOc1ccc(CC2SC(=O)NC2=O)cc1)c1ccccn1` (centres unmarked) [Ros, rosiglitazone, reference compound] was tested, and the “PPAR γ reporter activity” value (normal LANCL2, ABA 1.25-10 μM, Ros 1 or 10 μM, vs untreated cells) was “significantly elevated PPAR γ” and the “PPAR γ reporter activity” value (with LANCL2 siRNA) was “neither ABA nor Ros significantly affected PPAR γ activity”.
